In publication doi:10.1101/2022.11.07.515236:
These are yes or no findings as the source states them, for the method shown. For some of these results: Where a sequence is shown, tags or fusion partners need not be part of it.

Sequences of proteins named here, by UniProt entry; tags and fusion partners are left off. Residues count along the entry.
UniProt P37173, residues 23-166: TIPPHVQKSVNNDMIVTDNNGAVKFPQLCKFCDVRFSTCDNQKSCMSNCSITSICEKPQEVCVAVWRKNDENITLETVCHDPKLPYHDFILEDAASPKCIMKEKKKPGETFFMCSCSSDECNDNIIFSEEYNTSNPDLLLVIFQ

How the values were obtained:
[1] = molecular target: recombinant human TGFBR2-Fc (human) (UniProt P37173); experiment: BLI
[2] = molecular target: recombinant human TGFBR2-Fc (human) (UniProt P37173); experiment: SPR
[3] = molecular target: T1, recombinant human ACTRIIB-Fc (human) (UniProt Q13705); experiment: BLI
T1 sequence: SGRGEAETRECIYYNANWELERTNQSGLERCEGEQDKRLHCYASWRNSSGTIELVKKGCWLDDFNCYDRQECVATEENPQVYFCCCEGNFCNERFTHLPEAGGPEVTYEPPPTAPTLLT

Binder	binding [1]	binding [2]	binding [3]
recombinant human GDF3 (ligand, UniProt Q9NR23 251-364) AAIPVPKLSCKNLCHRHQLFINFRDLGWHKWIIAPKGFMANYCHGECPFSLTISLNSSNYAFMQALMHAVDPEIPQAVCIPTKLSPISMLYQDNNDNVILRHYEDMVVDECGCG	no binding (tested: 50 nM)	no binding (tested: 12.5 nM)	–
recombinant mouse GDF3 (ligand, UniProt Q07104 253-366) AAISVPKGFCRNFCHRHQLFINFQDLGWHKWVIAPKGFMANYCHGECPFSMTTYLNSSNYAFMQALMHMADPKVPKAVCVPTKLSPISMLYQDSDKNVILRHYEDMVVDECGCG	no binding (tested: 50 nM)	–	no binding (tested: 50 nM)
